Measured values: publication PMC9569955
Results are given in words; binding and its absence hold for the method and conditions named. In cells and extracts the contact can be indirect. These calls come from enrichment with a bait or labelling near it, and not all partners need be listed. Values belong to the molecule of their own block, whether it stands above or below them.

The chains behind the UniProt entries cited, without tags or fusion partners. Residues count along the entry.
UniProt O95793, residues 82-577: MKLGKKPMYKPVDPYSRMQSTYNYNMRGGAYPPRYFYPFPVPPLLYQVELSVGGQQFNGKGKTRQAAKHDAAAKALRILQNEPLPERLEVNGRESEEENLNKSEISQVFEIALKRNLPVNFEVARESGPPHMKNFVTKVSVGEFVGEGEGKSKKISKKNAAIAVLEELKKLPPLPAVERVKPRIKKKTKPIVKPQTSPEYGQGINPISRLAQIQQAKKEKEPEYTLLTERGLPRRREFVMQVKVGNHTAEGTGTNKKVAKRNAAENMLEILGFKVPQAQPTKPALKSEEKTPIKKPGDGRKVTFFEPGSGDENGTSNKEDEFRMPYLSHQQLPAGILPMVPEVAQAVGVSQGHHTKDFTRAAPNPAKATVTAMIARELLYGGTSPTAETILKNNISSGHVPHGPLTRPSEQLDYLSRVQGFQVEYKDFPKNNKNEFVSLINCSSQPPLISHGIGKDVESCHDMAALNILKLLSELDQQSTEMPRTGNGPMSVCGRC
UniProt Q14258: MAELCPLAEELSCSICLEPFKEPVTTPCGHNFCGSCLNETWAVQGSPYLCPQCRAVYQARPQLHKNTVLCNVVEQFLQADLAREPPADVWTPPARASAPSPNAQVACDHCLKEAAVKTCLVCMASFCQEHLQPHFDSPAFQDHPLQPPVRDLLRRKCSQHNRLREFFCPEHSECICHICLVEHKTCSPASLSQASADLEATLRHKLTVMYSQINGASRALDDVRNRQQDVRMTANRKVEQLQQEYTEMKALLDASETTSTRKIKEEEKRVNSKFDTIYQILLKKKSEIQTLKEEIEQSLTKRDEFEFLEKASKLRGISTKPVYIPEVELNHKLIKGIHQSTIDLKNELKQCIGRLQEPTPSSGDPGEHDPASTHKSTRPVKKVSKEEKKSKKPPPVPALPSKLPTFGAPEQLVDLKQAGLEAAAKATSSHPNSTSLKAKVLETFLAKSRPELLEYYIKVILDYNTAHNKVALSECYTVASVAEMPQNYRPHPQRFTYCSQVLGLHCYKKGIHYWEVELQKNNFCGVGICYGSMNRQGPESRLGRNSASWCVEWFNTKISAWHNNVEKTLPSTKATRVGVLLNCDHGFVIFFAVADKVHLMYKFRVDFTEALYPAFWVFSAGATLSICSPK
UniProt Q12834: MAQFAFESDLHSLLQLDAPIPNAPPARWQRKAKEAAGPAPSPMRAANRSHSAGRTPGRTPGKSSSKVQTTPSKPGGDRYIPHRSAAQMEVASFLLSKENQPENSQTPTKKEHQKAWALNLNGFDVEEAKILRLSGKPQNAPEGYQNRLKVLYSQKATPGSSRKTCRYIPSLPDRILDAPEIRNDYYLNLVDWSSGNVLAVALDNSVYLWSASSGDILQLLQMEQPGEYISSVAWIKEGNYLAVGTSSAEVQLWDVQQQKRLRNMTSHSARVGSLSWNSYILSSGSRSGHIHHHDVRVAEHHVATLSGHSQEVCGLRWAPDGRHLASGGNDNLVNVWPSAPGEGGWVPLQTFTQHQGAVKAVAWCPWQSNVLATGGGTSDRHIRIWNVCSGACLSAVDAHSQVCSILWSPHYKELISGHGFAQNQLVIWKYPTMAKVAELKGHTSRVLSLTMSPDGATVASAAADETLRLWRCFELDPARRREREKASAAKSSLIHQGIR
UniProt P51114: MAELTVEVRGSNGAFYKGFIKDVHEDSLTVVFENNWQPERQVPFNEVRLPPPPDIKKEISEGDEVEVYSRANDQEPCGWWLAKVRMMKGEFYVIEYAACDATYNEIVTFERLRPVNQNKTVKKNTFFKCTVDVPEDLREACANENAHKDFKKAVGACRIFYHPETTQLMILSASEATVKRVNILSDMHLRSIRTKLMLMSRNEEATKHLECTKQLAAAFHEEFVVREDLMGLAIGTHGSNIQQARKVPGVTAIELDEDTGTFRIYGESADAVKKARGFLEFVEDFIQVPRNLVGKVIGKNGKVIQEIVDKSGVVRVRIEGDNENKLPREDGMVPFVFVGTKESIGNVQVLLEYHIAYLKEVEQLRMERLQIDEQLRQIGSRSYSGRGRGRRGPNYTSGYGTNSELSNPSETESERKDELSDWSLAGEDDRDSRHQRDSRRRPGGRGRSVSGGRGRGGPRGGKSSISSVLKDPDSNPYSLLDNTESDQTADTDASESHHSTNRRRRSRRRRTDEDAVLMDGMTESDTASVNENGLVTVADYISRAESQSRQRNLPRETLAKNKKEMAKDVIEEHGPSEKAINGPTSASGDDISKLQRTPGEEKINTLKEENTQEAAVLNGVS

What was measured:
[1] = target: STAU1^55-HA3-biotin ligase (BioID2) (UniProt O95793); experiment: proximity labelling; BioID2: asynchronous hTERT-RPE1 cells stably expressing Stau1^55-HA3-BioID2, 50 uM biotin for 16 h; biotinylated proteins pulled down with streptavidin-coated magnetic beads, LC-MS/MS; proteins kept if total spectrum enriched at least four times over controls
STAU1^55-HA3-TurboID = STAU1^55-HA3-TurboID (UniProt O95793); experiment: proximity labelling; TurboID: hTERT-RPE1 cells stably expressing STAU1^55-HA3-TurboID, synchronized in mitosis (nocodazole) or in G1/S (double thymidine block), 50 uM biotin for 3 h; biotinylated proteins pulled down with streptavidin-coated magnetic beads, LC-MS/MS; proteins kept if total spectrum enriched at least four times over controls

Molecule: TRIM25 (from UniProt Q14258 1-630)
binding [1]: binds | binding (STAU1^55-HA3-TurboID): binds

Molecule: cell division cycle 20 (CDC20) (from UniProt Q12834 1-499)
binding (STAU1^55-HA3-TurboID): binds

B2: ZNF598 (protein, UniProt Q86UK7 1-904)
chain: MAAAGGAEGRRAALEAAAAAAPERGGGSCVLCCGDLEATALGRCDHPVCYRCSTKMRVLCEQRYCAVCREELRQVVFGKKLPAFATIPIHQLQHEKKYDIYFADGKVYALYRQLLQHECPRCPELPPFSLFGDLEQHMRRQHELFCCRLCLQHLQIFTYERKWYSRKDLARHRMQGDPDDTSHRGHPLCKFCDERYLDNDELLKHLRRDHYFCHFCDSDGAQDYYSDYAYLREHFREKHFLCEEGRCSTEQFTHAFRTEIDLKAHRTACHSRSRAEARQNRHIDLQFSYAPRHSRRNEGVVGGEDYEEVDRYSRQGRVARAGTRGAQQSRRGSWRYKREEEDREVAAAVRASVAAQQQEEARRSEDQEEGGRPKKEEAAARGPEDPRGPRRSPRTQGEGPGPKETSTNGPVSQEAFSVTGPAAPGCVGVPGALPPPSPKLKDEDFPSLSASTSSSCSTAATPGPVGLALPYAIPARGRSAFQEEDFPALVSSVPKPGTAPTSLVSAWNSSSSSKKVAQPPLSAQATGSGQPTRKAGKGSRGGRKGGPPFTQEEEEDGGPALQELLSTRPTGSVSSTLGLASIQPSKVGKKKKVGSEKPGTTLPQPPPATCPPGALQAPEAPASRAEGPVAVVVNGHTEGPAPARSAPKEPPGLPRPLGSFPCPTPQEDFPALGGPCPPRMPPPPGFSAVVLLKGTPPPPPPGLVPPISKPPPGFSGLLPSPHPACVPSPATTTTTKAPRLLPAPRAYLVPENFRERNLQLIQSIRDFLQSDEARFSEFKSHSGEFRQGLISAAQYYKSCRDLLGENFQKVFNELLVLLPDTAKQQELLSAHTDFCNREKPLSTKSKKNKKSAWQATTQQAGLDCRVCPTCQQVLAHGDASSHQALHAARDDDFPSLQAIARIIT
binding [1]: binds | binding (STAU1^55-HA3-TurboID): binds

The next lines start with the values.

binding [1]: binds
Molecule: FXR1 (from UniProt P51114 1-621)

binding [1]: binds
B1: UPF1 (protein, UniProt Q92900 1-1129)
chain: MSVEAYGPSSQTLTFLDTEEAELLGADTQGSEFEFTDFTLPSQTQTPPGGPGGPGGGGAGGPGGAGAGAAAGQLDAQVGPEGILQNGAVDDSVAKTSQLLAELNFEEDEEDTYYTKDLPIHACSYCGIHDPACVVYCNTSKKWFCNGRGNTSGSHIVNHLVRAKCKEVTLHKDGPLGETVLECYNCGCRNVFLLGFIPAKADSVVVLLCRQPCASQSSLKDINWDSSQWQPLIQDRCFLSWLVKIPSEQEQLRARQITAQQINKLEELWKENPSATLEDLEKPGVDEEPQHVLLRYEDAYQYQNIFGPLVKLEADYDKKLKESQTQDNITVRWDLGLNKKRIAYFTLPKTDSGNEDLVIIWLRDMRLMQGDEICLRYKGDLAPLWKGIGHVIKVPDNYGDEIAIELRSSVGAPVEVTHNFQVDFVWKSTSFDRMQSALKTFAVDETSVSGYIYHKLLGHEVEDVIIKCQLPKRFTAQGLPDLNHSQVYAVKTVLQRPLSLIQGPPGTGKTVTSATIVYHLARQGNGPVLVCAPSNIAVDQLTEKIHQTGLKVVRLCAKSREAIDSPVSFLALHNQIRNMDSMPELQKLQQLKDETGELSSADEKRYRALKRTAERELLMNADVICCTCVGAGDPRLAKMQFRSILIDESTQATEPECMVPVVLGAKQLILVGDHCQLGPVVMCKKAAKAGLSQSLFERLVVLGIRPIRLQVQYRMHPALSAFPSNIFYEGSLQNGVTAADRVKKGFDFQWPQPDKPMFFYVTQGQEEIASSGTSYLNRTEAANVEKITTKLLKAGAKPDQIGIITPYEGQRSYLVQYMQFSGSLHTKLYQEVEIASVDAFQGREKDFIILSCVRANEHQGIGFLNDPRRLNVALTRARYGVIIVGNPKALSKQPLWNHLLNYYKEQKVLVEGPLNNLRESLMQFSKPRKLVNTINPGARFMTTAMYDAREAIIPGSVYDRSSQGRPSSMYFQTHDQIGMISAGPSHVAAMNIPIPFNLVMPPMPPPGYFGQANGPAAGRGTPKGKTGRGGRQKNRFGLPGPSQTNLPNSQASQDVASQPFSQGALTQGYISMSQPSQMSQPGLSQPELSQDSYLGDEFKSQIDVALSQDSTYQGERAYQHGGVTGLSQY

binding [1]: binds
B3: STAU2 (protein, UniProt Q9NUL3 1-570)
chain: MANPKEKTAMCLVNELARFNRVQPQYKLLNERGPAHSKMFSVQLSLGEQTWESEGSSIKKAQQAVANKALTESTLPKPVQKPPKSNVNNNPGSITPTVELNGLAMKRGEPAIYRPLDPKPFPNYRANYNFRGMYNQRYHCPVPKIFYVQLTVGNNEFFGEGKTRQAARHNAAMKALQALQNEPIPERSPQNGESGKDVDDDKDANKSEISLVFEIALKRNMPVSFEVIKESGPPHMKSFVTRVSVGEFSAEGEGNSKKLSKKRAATTVLQELKKLPPLPVVEKPKLFFKKRPKTIVKAGPEYGQGMNPISRLAQIQQAKKEKEPDYVLLSERGMPRRREFVMQVKVGNEVATGTGPNKKIAKKNAAEAMLLQLGYKASTNLQDQLEKTGENKGWSGPKPGFPEPTNNTPKGILHLSPDVYQEMEASRHKVISGTTLGYLSPKDMNQPSSSFFSISPTSNSSATIARELLMNGTSSTAEAIGLKGSSPTPPCSPVQPSKQLEYLARIQGFQAALSALKQFSEQGLDPIDGAMNIEKGSLEKQAKHLREKADNNQAPPGSIAQDCKKSNSAV
